Measured values: PMC7460215
Where two headings read alike, the source gives them in different places. No constants are given. Whether binding was seen depends on the method and setting. In cells and extracts the contact can be indirect. Some entries that bind do so weakly or less than the wild type. Values belong to the molecule of their own block, whether it stands above or below them.

Amino acid sequences for entries named in this document (tags omitted).
UniProt Q2HJ97: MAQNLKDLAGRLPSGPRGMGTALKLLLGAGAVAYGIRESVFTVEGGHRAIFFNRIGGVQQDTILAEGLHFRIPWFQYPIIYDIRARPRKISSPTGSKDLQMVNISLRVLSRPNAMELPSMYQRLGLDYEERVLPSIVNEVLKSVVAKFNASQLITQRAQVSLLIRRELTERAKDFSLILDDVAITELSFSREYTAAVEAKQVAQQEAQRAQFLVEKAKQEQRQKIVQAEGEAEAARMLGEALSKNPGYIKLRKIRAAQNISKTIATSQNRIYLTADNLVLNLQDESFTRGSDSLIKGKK
UniProt Q3ZC32: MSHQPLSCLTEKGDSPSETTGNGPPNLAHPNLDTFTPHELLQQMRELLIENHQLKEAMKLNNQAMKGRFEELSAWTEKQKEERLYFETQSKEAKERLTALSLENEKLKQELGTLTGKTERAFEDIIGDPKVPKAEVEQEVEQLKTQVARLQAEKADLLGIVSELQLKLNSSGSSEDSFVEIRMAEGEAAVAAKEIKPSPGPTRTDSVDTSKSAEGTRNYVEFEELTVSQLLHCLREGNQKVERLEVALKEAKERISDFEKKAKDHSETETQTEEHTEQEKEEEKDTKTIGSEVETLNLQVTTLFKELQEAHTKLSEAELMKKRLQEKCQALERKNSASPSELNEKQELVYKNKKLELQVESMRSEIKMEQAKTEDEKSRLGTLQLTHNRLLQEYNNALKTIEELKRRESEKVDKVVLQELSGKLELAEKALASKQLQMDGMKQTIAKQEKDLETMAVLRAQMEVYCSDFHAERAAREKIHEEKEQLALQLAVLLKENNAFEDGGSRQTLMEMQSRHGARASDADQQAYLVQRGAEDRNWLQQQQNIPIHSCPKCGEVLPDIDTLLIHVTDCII

How the values were obtained:
[1] = target: Prohibitin 2 (PHB2) (cattle (endogenous in bovine bladder mucosa)) (UniProt Q2HJ97); assay: co-IP; anti-PHB2 antibody on mitochondrial and cytosolic extracts (100 ug protein) of healthy and neoplastic (BPV-infected) bovine bladder mucosa; Protein A/G-Plus agarose overnight at 4 °C; four washes in complete lysis buffer; Western blot; isotype IgG as control
[2] = target: T1, Prohibitin 1 (PHB1) (cattle (endogenous in bovine bladder mucosa)) (UniProt Q3T165); assay: co-IP; anti-PHB1 antibody on mitochondrial and cytosolic extracts (100 ug protein) of healthy and neoplastic bovine bladder mucosa; Protein A/G-Plus agarose overnight at 4 °C; Western blot; isotype IgG as control
T1 sequence: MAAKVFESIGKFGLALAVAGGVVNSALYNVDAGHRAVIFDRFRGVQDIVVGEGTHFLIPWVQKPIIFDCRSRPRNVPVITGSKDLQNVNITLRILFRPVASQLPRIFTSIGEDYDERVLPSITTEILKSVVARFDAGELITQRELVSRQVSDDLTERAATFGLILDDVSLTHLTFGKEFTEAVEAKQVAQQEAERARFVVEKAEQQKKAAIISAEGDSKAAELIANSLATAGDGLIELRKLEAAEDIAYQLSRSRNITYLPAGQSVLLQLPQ

[3] = target: Prohibitin 2 (PHB2) (cattle (endogenous in bovine bladder mucosa)) (UniProt Q2HJ97); assay: co-IP; anti-PHB2 antibody on mitochondrial and cytosolic extracts (100 ug protein) of healthy and neoplastic (BPV-infected) bovine bladder mucosa; Protein A/G-Plus agarose overnight at 4 °C; four washes in complete lysis buffer; Western blot; isotype IgG as control; remark: listed apart in the source

binding [1]: binds
Molecule: optineurin (OPTN) (from UniProt Q3ZC32 1-573)

binding [2]: binds
Molecule: Prohibitin 2 (PHB2) (from UniProt Q2HJ97 1-299)

binding [3]: binds
B1: Prohibitin 1 (PHB1) (protein, UniProt Q3T165 1-272)
chain: T1 sequence
